Measured values reported in the supplement of paper PMC10849652.
The other results are listed elsewhere or left out.

Sequences of proteins named here, by UniProt entry; tags and fusion partners are left off. A change or cut given only in a name is not applied to a line headed by its entry.
UniProt P78371: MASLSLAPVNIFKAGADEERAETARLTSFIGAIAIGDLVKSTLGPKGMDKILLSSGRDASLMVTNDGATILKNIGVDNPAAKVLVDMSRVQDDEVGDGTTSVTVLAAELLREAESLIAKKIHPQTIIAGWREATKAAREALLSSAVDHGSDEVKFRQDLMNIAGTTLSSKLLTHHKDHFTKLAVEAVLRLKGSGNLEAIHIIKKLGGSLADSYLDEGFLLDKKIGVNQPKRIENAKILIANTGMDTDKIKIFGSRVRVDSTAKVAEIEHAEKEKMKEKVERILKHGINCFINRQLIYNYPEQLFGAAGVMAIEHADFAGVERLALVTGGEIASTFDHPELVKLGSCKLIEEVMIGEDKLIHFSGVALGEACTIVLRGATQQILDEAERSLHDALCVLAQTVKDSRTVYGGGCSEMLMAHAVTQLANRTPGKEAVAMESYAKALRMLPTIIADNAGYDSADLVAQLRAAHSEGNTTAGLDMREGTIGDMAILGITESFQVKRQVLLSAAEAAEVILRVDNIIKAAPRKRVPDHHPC
UniProt Q6PII3: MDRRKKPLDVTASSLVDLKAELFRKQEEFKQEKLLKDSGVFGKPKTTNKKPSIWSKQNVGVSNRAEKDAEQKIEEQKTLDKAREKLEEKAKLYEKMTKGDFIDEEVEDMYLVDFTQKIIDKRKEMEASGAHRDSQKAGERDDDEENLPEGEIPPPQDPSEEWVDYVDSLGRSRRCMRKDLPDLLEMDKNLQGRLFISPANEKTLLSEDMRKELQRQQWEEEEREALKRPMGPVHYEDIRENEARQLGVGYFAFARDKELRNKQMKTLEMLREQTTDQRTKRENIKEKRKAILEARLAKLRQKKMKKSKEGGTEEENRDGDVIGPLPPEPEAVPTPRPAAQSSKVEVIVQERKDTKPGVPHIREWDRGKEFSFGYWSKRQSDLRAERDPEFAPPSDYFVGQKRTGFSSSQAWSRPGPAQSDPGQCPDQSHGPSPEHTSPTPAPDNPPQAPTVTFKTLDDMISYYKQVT
UniProt Q8IWY9: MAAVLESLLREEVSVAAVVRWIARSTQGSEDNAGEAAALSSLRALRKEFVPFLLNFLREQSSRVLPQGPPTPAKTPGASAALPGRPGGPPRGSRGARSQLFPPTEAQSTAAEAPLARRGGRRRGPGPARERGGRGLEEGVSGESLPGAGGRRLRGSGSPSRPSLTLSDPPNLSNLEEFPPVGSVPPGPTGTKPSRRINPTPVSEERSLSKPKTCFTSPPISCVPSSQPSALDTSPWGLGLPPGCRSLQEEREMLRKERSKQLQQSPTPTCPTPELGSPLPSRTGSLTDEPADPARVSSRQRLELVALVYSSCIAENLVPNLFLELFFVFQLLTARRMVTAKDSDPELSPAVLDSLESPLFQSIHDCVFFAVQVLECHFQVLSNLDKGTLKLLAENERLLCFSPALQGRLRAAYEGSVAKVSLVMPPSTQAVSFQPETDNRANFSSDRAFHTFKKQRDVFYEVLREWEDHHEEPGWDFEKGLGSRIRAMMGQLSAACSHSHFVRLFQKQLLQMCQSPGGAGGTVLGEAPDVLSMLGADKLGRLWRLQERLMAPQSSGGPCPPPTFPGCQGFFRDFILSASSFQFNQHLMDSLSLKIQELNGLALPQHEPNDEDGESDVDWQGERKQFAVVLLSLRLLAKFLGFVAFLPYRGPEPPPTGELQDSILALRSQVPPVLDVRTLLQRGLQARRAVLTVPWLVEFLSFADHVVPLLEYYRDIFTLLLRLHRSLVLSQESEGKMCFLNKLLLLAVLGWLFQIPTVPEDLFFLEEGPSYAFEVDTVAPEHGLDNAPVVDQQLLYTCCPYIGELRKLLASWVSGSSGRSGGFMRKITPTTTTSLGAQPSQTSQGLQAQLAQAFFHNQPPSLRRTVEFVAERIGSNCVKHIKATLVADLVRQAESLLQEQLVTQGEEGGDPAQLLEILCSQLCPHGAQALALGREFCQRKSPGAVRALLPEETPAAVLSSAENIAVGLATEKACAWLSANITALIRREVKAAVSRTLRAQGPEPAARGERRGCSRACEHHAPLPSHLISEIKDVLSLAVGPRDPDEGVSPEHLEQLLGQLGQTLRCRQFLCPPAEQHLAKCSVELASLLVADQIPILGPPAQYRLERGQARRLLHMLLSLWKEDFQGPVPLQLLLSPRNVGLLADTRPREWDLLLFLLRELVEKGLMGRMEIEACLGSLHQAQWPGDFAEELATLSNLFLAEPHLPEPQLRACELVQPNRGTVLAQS
UniProt Q8N163, whole entry, looked up: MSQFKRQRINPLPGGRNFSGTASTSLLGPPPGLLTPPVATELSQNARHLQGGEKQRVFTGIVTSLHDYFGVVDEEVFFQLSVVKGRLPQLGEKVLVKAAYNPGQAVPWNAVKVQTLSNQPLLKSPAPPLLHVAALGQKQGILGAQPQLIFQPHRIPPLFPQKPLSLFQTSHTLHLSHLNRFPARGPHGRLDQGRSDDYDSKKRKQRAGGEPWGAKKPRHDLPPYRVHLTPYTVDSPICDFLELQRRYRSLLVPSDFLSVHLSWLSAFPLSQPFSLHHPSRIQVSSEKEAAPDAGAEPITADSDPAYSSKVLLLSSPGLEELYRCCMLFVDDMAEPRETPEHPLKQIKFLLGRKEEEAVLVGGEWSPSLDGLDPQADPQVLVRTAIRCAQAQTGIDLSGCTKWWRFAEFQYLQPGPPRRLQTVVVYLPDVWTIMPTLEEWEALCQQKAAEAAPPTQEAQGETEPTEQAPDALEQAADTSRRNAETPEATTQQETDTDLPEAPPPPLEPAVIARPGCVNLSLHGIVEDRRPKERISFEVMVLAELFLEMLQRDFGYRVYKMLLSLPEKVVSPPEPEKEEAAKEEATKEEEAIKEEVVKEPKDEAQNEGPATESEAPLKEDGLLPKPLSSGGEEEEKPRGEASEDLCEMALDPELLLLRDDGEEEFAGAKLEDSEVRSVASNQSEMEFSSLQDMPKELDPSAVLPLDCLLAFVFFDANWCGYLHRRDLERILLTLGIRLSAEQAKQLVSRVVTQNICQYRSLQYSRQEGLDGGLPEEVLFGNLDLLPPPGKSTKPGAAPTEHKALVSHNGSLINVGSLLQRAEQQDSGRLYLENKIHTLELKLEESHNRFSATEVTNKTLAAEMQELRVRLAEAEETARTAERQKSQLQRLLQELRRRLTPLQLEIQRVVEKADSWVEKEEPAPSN
UniProt Q8N4T8: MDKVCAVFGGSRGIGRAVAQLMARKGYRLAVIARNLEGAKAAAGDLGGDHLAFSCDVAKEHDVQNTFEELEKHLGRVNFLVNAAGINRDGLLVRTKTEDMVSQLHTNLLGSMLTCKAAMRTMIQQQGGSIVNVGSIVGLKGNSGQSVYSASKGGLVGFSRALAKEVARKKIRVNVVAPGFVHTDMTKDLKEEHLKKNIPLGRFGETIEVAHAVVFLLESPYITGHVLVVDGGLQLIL
UniProt Q96NT0: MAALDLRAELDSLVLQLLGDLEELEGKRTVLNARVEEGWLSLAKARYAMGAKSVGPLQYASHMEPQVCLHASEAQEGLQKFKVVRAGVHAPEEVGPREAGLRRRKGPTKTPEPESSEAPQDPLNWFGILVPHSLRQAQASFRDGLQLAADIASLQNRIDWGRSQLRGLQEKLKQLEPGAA
UniProt O75081: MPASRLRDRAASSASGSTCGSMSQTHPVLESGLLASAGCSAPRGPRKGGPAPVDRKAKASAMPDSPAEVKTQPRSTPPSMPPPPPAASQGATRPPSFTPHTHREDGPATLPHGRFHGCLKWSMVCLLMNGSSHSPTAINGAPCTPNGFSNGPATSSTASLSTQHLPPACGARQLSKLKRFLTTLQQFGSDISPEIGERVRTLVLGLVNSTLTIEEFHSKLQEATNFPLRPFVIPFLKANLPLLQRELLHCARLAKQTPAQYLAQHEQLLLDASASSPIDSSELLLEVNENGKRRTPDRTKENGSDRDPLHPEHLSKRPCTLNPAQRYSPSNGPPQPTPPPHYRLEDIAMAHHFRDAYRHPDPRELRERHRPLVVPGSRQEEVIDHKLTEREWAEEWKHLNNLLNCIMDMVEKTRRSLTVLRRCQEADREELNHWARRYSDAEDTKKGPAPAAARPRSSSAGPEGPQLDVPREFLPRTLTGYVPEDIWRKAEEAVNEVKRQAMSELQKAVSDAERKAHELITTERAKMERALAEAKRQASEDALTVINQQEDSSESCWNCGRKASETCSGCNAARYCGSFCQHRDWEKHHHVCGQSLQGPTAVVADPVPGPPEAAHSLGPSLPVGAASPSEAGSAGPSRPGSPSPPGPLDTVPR
UniProt P30305: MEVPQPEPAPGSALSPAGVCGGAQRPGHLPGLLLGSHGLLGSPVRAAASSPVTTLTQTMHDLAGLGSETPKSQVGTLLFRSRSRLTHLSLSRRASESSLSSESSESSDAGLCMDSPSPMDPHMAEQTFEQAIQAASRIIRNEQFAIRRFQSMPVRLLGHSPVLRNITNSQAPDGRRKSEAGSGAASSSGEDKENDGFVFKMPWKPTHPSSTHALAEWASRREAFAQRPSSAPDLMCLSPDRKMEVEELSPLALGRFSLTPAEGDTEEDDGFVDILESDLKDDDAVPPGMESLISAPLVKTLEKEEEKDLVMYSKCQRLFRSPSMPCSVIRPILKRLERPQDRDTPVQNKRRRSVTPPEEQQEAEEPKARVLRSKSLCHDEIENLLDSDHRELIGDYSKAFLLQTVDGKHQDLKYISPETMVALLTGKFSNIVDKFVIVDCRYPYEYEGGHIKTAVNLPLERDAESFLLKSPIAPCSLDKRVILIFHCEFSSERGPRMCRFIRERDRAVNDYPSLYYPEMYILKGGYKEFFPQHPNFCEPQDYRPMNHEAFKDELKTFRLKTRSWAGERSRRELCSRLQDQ
UniProt P48960: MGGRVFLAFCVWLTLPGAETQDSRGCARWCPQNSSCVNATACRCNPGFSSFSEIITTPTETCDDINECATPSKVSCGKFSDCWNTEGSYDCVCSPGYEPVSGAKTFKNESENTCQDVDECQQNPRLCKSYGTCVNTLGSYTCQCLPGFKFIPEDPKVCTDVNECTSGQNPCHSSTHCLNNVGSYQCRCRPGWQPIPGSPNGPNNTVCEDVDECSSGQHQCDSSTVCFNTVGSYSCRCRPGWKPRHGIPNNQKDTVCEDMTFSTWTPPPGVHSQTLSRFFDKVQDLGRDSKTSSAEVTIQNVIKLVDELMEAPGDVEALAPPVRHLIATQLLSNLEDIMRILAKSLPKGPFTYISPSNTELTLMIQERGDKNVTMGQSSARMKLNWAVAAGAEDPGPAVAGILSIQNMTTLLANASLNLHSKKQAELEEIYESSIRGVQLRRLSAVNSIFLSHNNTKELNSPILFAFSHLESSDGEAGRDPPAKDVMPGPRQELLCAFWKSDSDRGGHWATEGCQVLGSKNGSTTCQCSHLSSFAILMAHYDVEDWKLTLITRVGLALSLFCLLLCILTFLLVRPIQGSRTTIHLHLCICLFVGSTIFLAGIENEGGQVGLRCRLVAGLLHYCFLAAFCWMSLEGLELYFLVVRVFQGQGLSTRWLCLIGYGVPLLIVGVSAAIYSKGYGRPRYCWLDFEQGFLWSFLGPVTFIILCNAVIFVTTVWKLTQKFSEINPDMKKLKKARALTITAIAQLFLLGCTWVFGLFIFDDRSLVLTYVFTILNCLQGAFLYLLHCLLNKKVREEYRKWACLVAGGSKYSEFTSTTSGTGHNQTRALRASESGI
UniProt Q96MW1: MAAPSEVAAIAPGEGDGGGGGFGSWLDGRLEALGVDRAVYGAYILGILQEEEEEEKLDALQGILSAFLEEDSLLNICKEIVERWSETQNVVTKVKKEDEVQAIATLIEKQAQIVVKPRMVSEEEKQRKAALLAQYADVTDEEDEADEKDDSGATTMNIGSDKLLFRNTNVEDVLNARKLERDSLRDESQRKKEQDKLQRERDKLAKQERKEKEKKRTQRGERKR
UniProt Q9GZT6: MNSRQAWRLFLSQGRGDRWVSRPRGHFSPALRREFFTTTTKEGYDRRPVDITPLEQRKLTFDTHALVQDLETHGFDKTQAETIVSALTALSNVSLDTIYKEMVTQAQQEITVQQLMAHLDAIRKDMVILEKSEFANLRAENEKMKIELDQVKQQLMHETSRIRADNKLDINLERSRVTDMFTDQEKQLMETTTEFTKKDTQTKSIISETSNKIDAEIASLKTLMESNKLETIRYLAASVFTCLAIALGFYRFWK
UniProt Q96A33: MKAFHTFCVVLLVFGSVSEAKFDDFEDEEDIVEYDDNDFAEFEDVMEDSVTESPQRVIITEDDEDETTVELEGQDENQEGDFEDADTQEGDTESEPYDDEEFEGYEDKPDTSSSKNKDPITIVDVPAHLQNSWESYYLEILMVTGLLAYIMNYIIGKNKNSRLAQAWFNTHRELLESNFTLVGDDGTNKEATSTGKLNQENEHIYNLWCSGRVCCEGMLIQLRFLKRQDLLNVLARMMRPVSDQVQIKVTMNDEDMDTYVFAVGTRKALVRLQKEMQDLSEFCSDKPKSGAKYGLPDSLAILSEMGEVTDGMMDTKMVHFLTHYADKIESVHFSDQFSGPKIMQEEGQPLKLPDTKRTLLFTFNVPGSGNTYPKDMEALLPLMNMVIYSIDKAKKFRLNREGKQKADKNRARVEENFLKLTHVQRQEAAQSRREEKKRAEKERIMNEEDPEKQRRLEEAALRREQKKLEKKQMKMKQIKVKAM

Legend:
Assay in all cases: log2 fold change, soluble protein after heating vs DMSO (PISA); higher = thermal stabilisation; K562 cells, 10 uM, 30 min; active = over 0.2 and 3.5 SD of the protein, either way, in both replicates (recomputed)
[1] = compound: C#Cc1cccc(Nc2ncnc3cc(OCCOC)c(OCCOC)cc23)c1 [erlotinib]
In short: (§1)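 K562 cells (2×10^6 cells/mL) were treated with 10 μM compound for 30 min, and aliquots were heated for 3 min over 48°C-58°C. Pooled aliquots were extracted in PBS with 0.5% NP-40 at 4°C, and the supernatant after 21,000xg for 90 min was measured by TMTpro 16plex LC-MS/MS with channel sums equalised. Reported thermal stability, relative to control samples and from duplicates, is a log2 fold change.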

[2] = compound: C/C(=N\NC(=O)C1=CC(=CC=C1)S(=O)(=O)N2CCOCC2)/C3=C(C=CC(=C3)Cl)O
In short: as §1

[3] = compound: C1=CC(=C(C=C1Cl)C2=NC3=NC=CN=C3C(=N2)NC4=CC=NC=C4)F
In short: as §1

[4] = compound: C1=CC(=CC=C1C2=NC3=C(N2)C=C(C=C3)C(=O)N)OC4=CC=C(C=C4)Cl
In short: as §1

[5] = compound: C1=CC2=C(C=CC(=C2)/C=C\3/C(=O)NC(=NCC4=CC=CS4)S3)N=C1
In short: as §1

[6] = compound: C1=CC2=NC=CN=C2C=C1/C=C/3\C(=O)NC(=O)S3
In short: as §1

[7] = compound: C1=CC=C(C=C1)C2=NC(=C(N2)C3=CC=NC=C3)C4=CC(=C(C=C4)Cl)O
In short: as §1

[8] = compound: C1=CC=C2C(=C1)C3=NNC4=CC=CC(=C43)C2=O
In short: as §1

[9] = compound: C1CCN(C1)C(=O)NC2=CC=CC(=C2)NC3=NC=C(C(=N3)NCCC4=CN=CN4)Br
In short: as §1

[10] = compound: C1CN(CCC1(CC2=CC=C(C=C2)Cl)N)C3=NC=NC4=C3C=CN4
In short: as §1

Target | log2 fold change [1] | log2 fold change [2] | log2 fold change [3] | log2 fold change [4] | log2 fold change [5] | log2 fold change [6] | log2 fold change [7] | log2 fold change [8] | log2 fold change [9] | log2 fold change [10]
CCNH (UniProt P51946) | inactive: -0.022 | inactive: 0.021 | inactive: 0.034 | inactive: -0.016 | inactive: -0.045 | inactive: 0.031 | inactive: 0.022 | inactive: -0.004 | inactive: -0.011 | inactive: -0.015
CCT2 (UniProt P78371) | inactive: -0.036 | inactive: -0.011 | inactive: 0.034 | inactive: -0.008 | inactive: -0.026 | inactive: -0.01 | inactive: 0.028 | inactive: 0.036 | inactive: 0.007 | inactive: 0.017
CCDC174 (UniProt Q6PII3) | inactive: -0.008 | inactive: -0.021 | inactive: -0.004 | inactive: 0.008 | inactive: -0.01 | inactive: 0.017 | inactive: 0.06 | inactive: -0.048 | inactive: -0.043 | inactive: 0.029
CD2AP (UniProt Q9Y5K6) | inactive: -0.03 | inactive: 0.001 | inactive: 0.061 | inactive: 0.003 | inactive: -0.005 | inactive: 0.003 | inactive: 0 | inactive: -0.002 | inactive: 0.004 | inactive: -0.001
CDAN1 (UniProt Q8IWY9) | inactive: -0.031 | inactive: 0.048 | inactive: -0.171 | inactive: -0.011 | inactive: 0.039 | inactive: 0.066 | inactive: 0.019 | inactive: -0.057 | inactive: 0.109 | inactive: 0.03
CDC26 (UniProt Q8NHZ8) | inactive: -0.096 | inactive: 0.16 | inactive: -0.046 | inactive: 0.034 | active: -0.542 | inactive: 0.025 | inactive: 0.355 | inactive: 0.037 | inactive: -0.137 | inactive: -0.022
CCSMST1 (UniProt Q4G0I0) | inactive: -0.075 | inactive: -0.046 | inactive: 0.058 | inactive: -0.05 | inactive: 0.033 | inactive: 0.169 | inactive: 0.114 | inactive: 0.036 | inactive: -0.046 | inactive: 0.014
CCAR2 isoform 2 (UniProt Q8N163) | inactive: 0.027 | inactive: 0.063 | inactive: 0.033 | inactive: -0.014 | inactive: 0.071 | inactive: 0 | inactive: 0.014 | inactive: -0.039 | inactive: 0.001 | inactive: 0.007
CBR4 (UniProt Q8N4T8) | inactive: 0.012 | inactive: 0.01 | inactive: -0.001 | inactive: 0.033 | inactive: 0 | inactive: -0.028 | inactive: 0.041 | inactive: 0.008 | inactive: -0.02 | inactive: 0.061
CC2D1A (UniProt Q6P1N0) | inactive: 0.201 | inactive: 0.068 | inactive: 0.027 | inactive: -0.046 | inactive: 0.014 | inactive: -0.032 | inactive: 0.002 | inactive: 0.087 | inactive: -0.023 | inactive: -0.022
CCDC82 (UniProt Q8N4S0) | inactive: -0.08 | inactive: 0.035 | inactive: 0.011 | inactive: -0.026 | inactive: -0.01 | inactive: 0.046 | inactive: -0.022 | inactive: -0.092 | inactive: -0.004 | inactive: 0.022
CCDC9 (UniProt Q9Y3X0) | inactive: 0.017 | inactive: -0.116 | inactive: -0.036 | inactive: 0.047 | inactive: -0.045 | inactive: 0.034 | inactive: 0.027 | inactive: -0.02 | inactive: 0.062 | inactive: 0.034
CDC37L1 (UniProt Q7L3B6) | inactive: -0.069 | inactive: 0.008 | inactive: -0.007 | inactive: -0.035 | inactive: 0.054 | inactive: 0.068 | inactive: 0 | inactive: -0.012 | inactive: 0.203 | inactive: 0.357
CCT8 (UniProt P50990) | inactive: -0.025 | inactive: -0.005 | inactive: 0.047 | inactive: -0.016 | inactive: 0.006 | inactive: 0.002 | inactive: 0.027 | inactive: 0.013 | inactive: 0 | inactive: 0.005
CCDC115 (UniProt Q96NT0) | inactive: 0.019 | inactive: 0.003 | inactive: 0.109 | inactive: -0.004 | inactive: -0.027 | inactive: 0.037 | inactive: 0.018 | inactive: 0.014 | inactive: -0.056 | inactive: 0.029
CD164 (UniProt Q04900) | inactive: -0.067 | inactive: 0.303 | inactive: -0.05 | inactive: 0.166 | inactive: 0.069 | inactive: -0.062 | inactive: -0.008 | inactive: -0.382 | – | –
CBWD1 (UniProt Q9BRT8) | inactive: 0.055 | inactive: -0.038 | inactive: 0.011 | inactive: 0.001 | inactive: 0.055 | inactive: 0.077 | inactive: 0.076 | inactive: 0.179 | inactive: 0.115 | inactive: -0.277
CASTOR2 (UniProt A6NHX0) | inactive: -0.026 | inactive: 0.117 | inactive: 0.013 | inactive: 0.018 | inactive: -0.031 | inactive: 0.017 | inactive: 0.029 | inactive: -0.017 | inactive: -0.065 | inactive: -0.002
CBFA2T3 (UniProt O75081) | inactive: 0.073 | inactive: 0.066 | inactive: 0.097 | inactive: 0.184 | inactive: -0.131 | inactive: 0.029 | inactive: -0.21 | inactive: 0.022 | inactive: -0.055 | inactive: -0.048
CDC25B isoform 4 (UniProt P30305) | inactive: -0.031 | inactive: 0.117 | inactive: 0.036 | inactive: 0.044 | inactive: -0.062 | inactive: 0.131 | inactive: -0.007 | inactive: -0.047 | – | –
CD97 (UniProt P48960) | inactive: -0.073 | inactive: -0.002 | inactive: 0.016 | inactive: 0.011 | inactive: -0.032 | inactive: 0.016 | inactive: 0.039 | inactive: 0.023 | inactive: -0.022 | inactive: -0.004
CBS (UniProt P35520) | inactive: 0.014 | inactive: -0.031 | inactive: 0.039 | inactive: -0.014 | inactive: -0.026 | inactive: 0.013 | inactive: -0.03 | inactive: 0.052 | inactive: 0.025 | inactive: 0.042
CBR1 (UniProt P16152) | inactive: 0.011 | inactive: 0.066 | inactive: 0.115 | inactive: 0.008 | inactive: -0.009 | inactive: 0.028 | inactive: 0.186 | inactive: -0.038 | inactive: -0.027 | inactive: 0.057
CBX1 (UniProt P83916) | inactive: 0.025 | inactive: -0.044 | inactive: 0.022 | inactive: 0.072 | inactive: 0.004 | inactive: 0.089 | inactive: -0.055 | inactive: -0.026 | inactive: -0.007 | inactive: -0.027
CCDC158 (UniProt Q5M9N0) | inactive: -0.026 | inactive: -0.116 | inactive: -0.257 | inactive: 0.1 | inactive: 0.045 | inactive: 0.03 | inactive: -0.115 | inactive: -0.043 | – | –
CCDC43 (UniProt Q96MW1) | inactive: 0.036 | inactive: 0.002 | inactive: 0.025 | inactive: 0.024 | inactive: -0.033 | inactive: 0.061 | inactive: -0.002 | inactive: -0.012 | inactive: 0.003 | inactive: 0.027
CCDC90B (UniProt Q9GZT6) | inactive: -0.04 | inactive: -0.013 | inactive: 0.082 | inactive: -0.021 | inactive: 0.078 | inactive: 0.046 | inactive: -0.04 | inactive: 0.064 | inactive: -0.012 | inactive: 0.002
CCZ1 (UniProt P86791) | inactive: 0.027 | inactive: 0.046 | inactive: -0.003 | inactive: 0.064 | inactive: 0.034 | inactive: -0.017 | inactive: 0.031 | inactive: 0.011 | inactive: 0.016 | inactive: 0.011
CDC27 isoform 2 (UniProt P30260) | inactive: -0.022 | inactive: 0.022 | inactive: -0.028 | inactive: 0.015 | inactive: 0.014 | inactive: 0.021 | inactive: 0.02 | inactive: -0.01 | inactive: -0.016 | inactive: -0.048
CCDC47 (UniProt Q96A33) | inactive: 0.003 | inactive: 0.047 | inactive: 0.062 | inactive: -0.023 | inactive: 0.069 | inactive: 0.021 | inactive: -0.046 | inactive: -0.024 | inactive: 0.005 | inactive: -0.003

A stretch from the list above, as a working copy:
Target | log2 fold change [1] | log2 fold change [2] | log2 fold change [3] | log2 fold change [4] | log2 fold change [5] | log2 fold change [6] | log2 fold change [7] | log2 fold change [8] | log2 fold change [9] | log2 fold change [10]
CCNH (UniProt P51946) | inactive: -0.022 | inactive: 0.021 | inactive: 0.034 | inactive: -0.016 | inactive: -0.045 | inactive: 0.031 | inactive: 0.022 | inactive: -0.004 | inactive: -0.011 | inactive: -0.015
CCT2 (UniProt P78371) | inactive: -0.036 | inactive: -0.011 | inactive: 0.034 | inactive: -0.008 | inactive: -0.026 | inactive: -0.01 | inactive: 0.028 | inactive: 0.036 | inactive: 0.007 | inactive: 0.017
CCDC174 (UniProt Q6PII3) | inactive: -0.008 | inactive: -0.021 | inactive: -0.004 | inactive: 0.008 | inactive: -0.01 | inactive: 0.017 | inactive: 0.06 | inactive: -0.048 | inactive: -0.043 | inactive: 0.029
CD2AP (UniProt Q9Y5K6) | inactive: -0.03 | inactive: 0.001 | inactive: 0.061 | inactive: 0.003 | inactive: -0.005 | inactive: 0.003 | inactive: 0 | inactive: -0.002 | inactive: 0.004 | inactive: -0.001
CDAN1 (UniProt Q8IWY9) | inactive: -0.031 | inactive: 0.048 | inactive: -0.171 | inactive: -0.011 | inactive: 0.039 | inactive: 0.066 | inactive: 0.019 | inactive: -0.057 | inactive: 0.109 | inactive: 0.03
CDC26 (UniProt Q8NHZ8) | inactive: -0.096 | inactive: 0.16 | inactive: -0.046 | inactive: 0.034 | active: -0.542 | inactive: 0.025 | inactive: 0.355 | inactive: 0.037 | inactive: -0.137 | inactive: -0.022
CCSMST1 (UniProt Q4G0I0) | inactive: -0.075 | inactive: -0.046 | inactive: 0.058 | inactive: -0.05 | inactive: 0.033 | inactive: 0.169 | inactive: 0.114 | inactive: 0.036 | inactive: -0.046 | inactive: 0.014
